Measured values as given in PubChem BioAssay AID2685 (National Center for Advancing Translational Sciences (NCATS), 2010).
The list shows a part of the results. These are further read-outs of the screen, such as a control signal, another cell line or another target. No call is given for them. Compounds called inactive in the main read-out are mostly missing here. Words in brackets tell the shape of the fitted curve; partial curves, single points and poor fits give uncertain potencies.

Experiment: qHTS Assay for Lipid Storage Modulators in Drosophila S3 Cells;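 for cell number change: cells counted by Cell Tracker Red CMTPX staining in the red channel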
Conditions: BODIPY lipid droplet fluorescence, 18-24 h; for cell number change: measured here: cell count max response, cells fed with added oleic acid
How it was run: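 Drosophila S3 cells loaded with oleic acid (400 uM, as added) and compounds at several concentrations; lipid droplets imaged by 488-nm laser-scanning cytometry, 500–530 nm intensity and object ratio to cell channel. Percent activity normalized to 20 uM Triacsin C.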

[1] = measured here: lipid fluorescence (Fed channel) AC50, cells fed with added oleic acid
[2] = measured here: cell number channel AC50, cells fed with added oleic acid

| Compound | cell number change [%] | AC50 [1] | AC50 [2] |
| --- | --- | --- | --- |
| CC(=O)N1CCN(c2ccc(Nc3ncnc4c3oc3ccccc34)cc2)CC1 | -22.4 | 16.4 µM [falling, single point] | – |
| Cn1c(N)c(C(=O)COC(=O)c2ccc3c(c2)OCCO3)c(=O)n(C)c1=O | 13.1 | 0.58 µM [rising, full curve, poor fit] | 5.8 µM [rising, single point] |
| NCCC(=O)N1c2ccccc2Sc2ccc(Cl)cc21 | -24.5 | 0.259 µM [falling, full curve] | – |
| Cc1cc(C)n(Cc2ccccc2Cl)n1 | 27.1 | 29.1 µM [rising, single point] | – |
| Cc1cc(C)nc(SCC(=O)Nc2ncc(Cc3ccc(Cl)c(Cl)c3)s2)n1 | 0.219 | 0.366 µM [rising, full curve] | – |
| CCC[C@@H](CN[C@@H](CNC)[C@H](C)CC)NCC1CCC(C(C)(C)C)CC1 (stereo not given in full) | -15.6 | – | – |
| Cc1ccc(C(=O)N(CC(C)C)c2nc3ccccc3s2)o1 | -30.7 | – | 20.6 µM [falling, single point] |
| C=C1CCN(c2ccc(C(=O)NCc3ccc(C)cc3)cc2[N+](=O)[O-])CC1 | -26.3 | 20.6 µM [falling, single point] | – |
| CN(C)CCNC(=O)CN1C(=O)COc2ccc(C(C)(C)C)cc21 | -5.2 | 0.366 µM [falling, partial curve, poor fit] | – |
| COc1cccc(CC(=O)OCC(=O)NCCc2ccc(F)cc2)c1 | -20.5 | 3.66 µM [falling, partial curve, poor fit] | 3.26 µM [falling, single point] |
| COc1ccc(NC(=O)c2ccc(-c3ccc([N+](=O)[O-])cc3)o2)cc1OC | 32.7 | – | 1.3 µM [rising, partial curve] |
| CCCOc1ccc(CN(C)c2ncnc(N)n2)cc1 | 27.8 | 8.2 µM [rising, partial curve] | – |
| [O-][n+]1c2c(nn1-c1ccc(Cl)c(Cl)c1)-c1nonc1CC2 | 32.8 | – | 18.4 µM [rising, single point] |
| CCOC(=O)c1cnn(-c2ccc(C(F)(F)F)cn2)c1N | 16.5 | 3.26 µM [rising, single point] | – |
| O=C(NCCCN1CCCC1)c1ccc2c(c1)N(Cc1cccc(Cl)c1)C(=O)c1ccccc1S2=O (stereo not given) | 11.9 | 16.4 µM [rising, single point] | – |
| O=C(NCCCn1ccnc1)c1cc(-c2cccc(O)c2)on1 | 31.1 | – | 14.6 µM [rising, single point] |
| Nc1nc(N)c(N=O)c(OCC2CCCCC2)n1 | 0.872 | – | – |
| O=C(CC12CC3CC(CC(C3)C1)C2)N/N=C/c1ccc([N+](=O)[O-])o1 | -56.6 | 8.2 µM [falling, partial curve] | 16.4 µM [falling, partial curve] |
| CCCOC(=O)C1C2C=CC(C2)C1C(=O)OCC(=O)c1ccccc1 (stereo not given) | – | 5.17 µM [rising, single point] | 3.26 µM [rising, single point] |

Full records from above. Order of values: cell number change [%] | AC50 [1] | AC50 [2]
`[O-][n+]1c2c(nn1-c1ccc(Cl)c(Cl)c1)-c1nonc1CC2` as listed: 32.8 | – | 18.4 µM [rising, single point]
`O=C(NCCCN1CCCC1)c1ccc2c(c1)N(Cc1cccc(Cl)c1)C(=O)c1ccccc1S2=O` (stereo not given) as listed: 11.9 | 16.4 µM [rising, single point] | –

Continued.

| Compound | cell number change [%] | AC50 [1] | AC50 [2] |
| --- | --- | --- | --- |
| Cc1cc(C)cc(N2Cc3ccccc3C2)c1 | -13.5 | 0.82 µM [falling, full curve] | – |
| O=C(CN1CCN(Cc2ccccc2F)C1=O)NCc1cccnc1 | 12.1 | 0.651 µM [falling, single point] | 0.651 µM [falling, single point] |
| Cc1ccc(OCC(=O)n2nc(C)cc2C)c(C)c1 | -16.5 | 0.517 µM [falling, full curve, poor fit] | – |
| c1coc(CNc2c3c(nc4ccccc24)CCC3)c1 | 9.77 | 2.06 µM [rising, partial curve, poor fit] | 0.651 µM [rising, full curve, poor fit] |
| O=C(NC(=S)Nc1ccc(CN2CCOCC2)cc1)c1ccc2c(c1)OCCO2 | 22.4 | – | 3.26 µM [rising, single point] |
| O=C(Nc1ccc(NC(=O)c2ccccn2)cc1)C(=O)Nc1ccc2c(c1)OCCO2 | – | 20.6 µM [falling, single point] | – |
| Cc1ccc(Nc2ccccc2N)cc1 | 0.615 | 29.1 µM [falling, single point] | – |
| Cn1c(=O)c([N+](=O)[O-])c(Oc2ccccc2)c2ccccc21 | -57.7 | 8.2 µM [falling, partial curve] | 13 µM [falling, partial curve] |
| O=Cc1ccc(OCc2cn3ccccc3n2)cc1 | -16.7 | 0.00461 µM [falling, full curve, poor fit] | – |
| O=C(CCCN1C(=O)/C(=C/c2cccs2)SC1=S)Nc1cccc(C(=O)O)c1 | -16.2 | 0.00411 µM [rising, full curve, poor fit] | – |
| Cc1nnc(SCC(=O)NC2CCCC2)s1 | 12 | 6.51 µM [falling, single point] | – |
| Cc1c(Cl)cccc1NC(=S)N=Nc1c(O)n(CN2CCOCC2)c2ccccc12 | -30 | 1.46 µM [falling, partial curve] | 16.4 µM [falling, single point] |
| O=C(NCc1ccccc1)NCC12CC3CC(CC(C3)C1)C2 | -10.1 | – | 0.794 µM [falling, single point] |
| CCOC(=O)/C=c1\sc2n(c1=O)CCN=2 | 1.36 | 0.461 µM [falling, full curve] | – |
| COc1ccc(CNC(=O)c2noc3c2CCCCC3)cc1 | 31.7 | 29.1 µM [rising, partial curve] | 1.84 µM [rising, partial curve] |
| O=C(CN1C(=O)NC2(CCc3ccccc32)C1=O)NCc1ccccc1Cl (stereo not given) | -28.1 | 0.411 µM [falling, full curve, poor fit] | – |
| Cc1ccc2nc(-c3ccc(S(=O)(=O)N4CCOCC4)cc3)cn2c1 | 0.338 | 29.1 µM [falling, single point] | – |
| NC(N)=Nc1nc2ccccc2o1 | 46.5 | 18.4 µM [rising, single point] | 0.206 µM [rising, full curve] |
